These are yes or no findings as the source states them, for the method shown. Binding seen in cells or lysates may run through a third protein. A yes stands for co-enrichment or nearness to the bait. Other partners may have been found.

Protein sequences, listed by entry. Tags and fused reporters are not part of them.
UniProt Q9CQW9: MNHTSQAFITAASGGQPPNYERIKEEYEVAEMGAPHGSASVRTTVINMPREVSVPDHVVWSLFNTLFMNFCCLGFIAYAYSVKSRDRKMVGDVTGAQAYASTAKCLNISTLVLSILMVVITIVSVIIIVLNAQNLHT

Here are results for one substance from article PMC11758215.

For this assay, the target named is T1, S100 calcium-binding protein A11 (mouse (endogenous in 4T1)) (UniProt P50543).
T1 sequence: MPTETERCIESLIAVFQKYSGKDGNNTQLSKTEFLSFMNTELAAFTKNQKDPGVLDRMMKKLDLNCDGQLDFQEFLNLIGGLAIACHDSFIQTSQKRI
As to the kind of experiment: affinity purification with mass spectrometry; 4T1 cell lysates incubated with S100A11 antibodies, protein A/G agarose beads, washed, eluted, LC-MS/MS (Orbitrap Eclipse), search against UniProtKB Mus musculus, FDR 1%.

Regarding IFITM3 (from UniProt Q9CQW9 1-137), the binding entry is given as “binds”.
